Laboratory results published in PubChem BioAssay AID256 (DTP/NCI, 2004).
The list does not hold the whole screen: it gathers tests that were run many times, whatever their T/C, doses with no T/C, and many T/C values between a quarter and a half above the control. Other doses and runs of a compound stand elsewhere. T/C gives the treated animals as a percentage of the vehicle group. Some entries give survivors of the animals treated and no T/C: the source files T/C as zero there, which appears to mark a toxic dose or a test without result, not a measured value. Some survivor counts are full or nearly so, which does not show that the dose was tolerated: survival well below the control is almost never listed, so the zero probably covers shortened survival too. Survivors were counted at the toxicity check, usually on the fifth day, unless a day is given; later deaths do not show. Schedule codes are those of the source, read here as Q, the interval in days (D) or hours (H), X, the number of doses. Some entries hold several experiments; the values are given in rising order. Where survival is the endpoint, this PubChem deposit counts one and a half times the control or more as active, and values a quarter to a half above the control carry no call in these data; other NCI protocols may use other cut-offs. Some T/C values are followed by the survivors on the day toxicity was checked, most often the fifth; where none is given, no animal had died by that day. Signs of the kind (2×) stand for listed records that agree.

System: CD2F1 mice, L1210 leukemia ip, survival T/C
Test: NCI In Vivo Anticancer Drug Screen. Data for tumor model L1210 Leukemia (intraperitoneal) in CD2F1 (CDF1) mice
Conditions: higher T/C = longer survival
Procedure, shortened: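 Implant tumor; dose compound or vehicle; measure endpoint in both groups; report treated divided by control.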

[1] = T/C endpoint: median survival time, dose: 400.0 mg/kg/injection, schedule: Q01DX005 (ip), vehicle: Klucel (hydroxypropylcellulose) (HPC)
[2] = T/C endpoint: median survival time, dose: 400.0 mg/kg/injection, schedule: Q01DX009 (ip), vehicle: Klucel (hydroxypropylcellulose) (HPC)
[3] = T/C endpoint: mean survival time, dose: 400.0 mg/kg/injection, schedule: Q04DX002 (ip), vehicle: saline with Tween-80
[4] = T/C endpoint: mean survival time, dose: 200.0 mg/kg/injection, schedule: Q01DX009 (ip), vehicle: saline with Tween-80
[5] = T/C endpoint: mean survival time, dose: 400.0 mg/kg/injection, schedule: Q01DX009 (ip), vehicle: saline with Tween-80
[6] = T/C endpoint: mean survival time, dose: 200.0 mg/kg/injection, schedule: Q04DX003 (ip), vehicle: saline with Tween-80
[7] = T/C endpoint: mean survival time, dose: 400.0 mg/kg/injection, schedule: Q04DX003 (ip), vehicle: saline with Tween-80
[8] = T/C endpoint: mean survival time, dose: 100.0 mg/kg/injection, schedule: Q04DX002 (ip), vehicle: saline
[9] = T/C endpoint: mean survival time, dose: 200.0 mg/kg/injection, schedule: Q04DX002 (ip), vehicle: saline
[10] = T/C endpoint: mean survival time, dose: 300.0 mg/kg/injection, schedule: Q01DX001 (ip), vehicle: saline
[11] = T/C endpoint: mean survival time, dose: 400.0 mg/kg/injection, schedule: Q01DX001 (ip), vehicle: saline
[12] = T/C endpoint: mean survival time, dose: 100.0 mg/kg/injection, schedule: Q04DX002 (ip), vehicle: saline with Tween-80
[13] = T/C endpoint: mean survival time, dose: 100.0 mg/kg/injection, schedule: Q01DX009 (ip), vehicle: saline with Tween-80

## CN(C)C(=O)Nc1ccc(Cl)cc1
T/C endpoint: median survival time, dose: 25.0 mg/kg/injection, schedule: Q01DX005 (ip), vehicle: Klucel (hydroxypropylcellulose) (HPC)
  T/C: 97, 98, 100 (2×), 103 (2×), 107, 109 (2×), 110, 111 % of control
T/C endpoint: median survival time, dose: 25.0 mg/kg/injection, schedule: Q01DX009 (ip), vehicle: Klucel (hydroxypropylcellulose) (HPC)
  T/C: 94, 100 (3×), 101, 102 (2×), 104, 109, 110, 117 % of control
T/C endpoint: median survival time, dose: 50.0 mg/kg/injection, schedule: Q01DX005 (ip), vehicle: Klucel (hydroxypropylcellulose) (HPC)
  T/C: 96 (3×), 97 [5 of 6 alive], 98, 100, 101, 102, 103, 107, 107 % of control [5 of 6 alive]
T/C endpoint: median survival time, dose: 50.0 mg/kg/injection, schedule: Q01DX009 (ip), vehicle: Klucel (hydroxypropylcellulose) (HPC)
  T/C: 92 (2×), 98, 100 (2×), 102, 105 (2×), 106, 108, 121 % of control
T/C endpoint: median survival time, dose: 100.0 mg/kg/injection, schedule: Q01DX005 (ip), vehicle: Klucel (hydroxypropylcellulose) (HPC)
  T/C: 96 (2×), 97, 98 (2×), 100, 102, 104, 106, 107, 109 % of control [5 of 6 alive]
T/C endpoint: median survival time, dose: 100.0 mg/kg/injection, schedule: Q01DX009 (ip), vehicle: Klucel (hydroxypropylcellulose) (HPC)
  T/C: 94, 97, 98 (2×), 98 [5 of 6 alive], 100 (2×), 102, 107, 108, 109 % of control
T/C endpoint: median survival time, dose: 200.0 mg/kg/injection, schedule: Q01DX005 (ip), vehicle: Klucel (hydroxypropylcellulose) (HPC)
  T/C: 93, 95, 97, 102 (3×), 105, 108, 109 (2×), 110 % of control
T/C endpoint: median survival time, dose: 200.0 mg/kg/injection, schedule: Q01DX009 (ip), vehicle: Klucel (hydroxypropylcellulose) (HPC)
  T/C: 96, 97, 101 (2×), 104, 106, 108, 109 (2×), 114 % of control (2×)
[1]
  T/C: 86 [4 of 6 alive], 106 (2×), 107, 108, 109, 110, 112, 116 % of control
  survivor count: 1 of 6 and 5 of 6
[2]
  T/C: 102, 107 (2×), 109 [5 of 6 alive], 112, 113, 115, 119 [5 of 6 alive], 120 % of control
  survivor count: 1 of 6 and 2 of 6

## CC1CCC2(OC1)OC1CC3C4CCC5(C)CC(=O)CCC5(C)C4CCC3(C)C1C2C (centres undefined)
[3]
  survivor count: 3 of 3

## CN1C=Cc2ccccc2C1
[4]
  survivor count: 3 of 6
[5]
  survivor count: 0 of 6

## [Cl][Fe]([Cl])([Cl])[Cl].c1ccc(-c2cc(-c3ccccc3)[o+]c(-c3ccccc3)c2)cc1
[6]
  survivor count: 2 of 6
[7]
  survivor count: 0 of 6

## CC1NCCCNCCCNC(C)c2cccc1n2 (centres undefined)
[8]
  survivor count: 0 of 3
[9]
  survivor count: 0 of 3

## Nc1nc(N)nc(NC(=O)COc2cc(Cl)c(Cl)cc2Cl)n1
[6]
  survivor count: 6 of 6

## NCCCC(N)C(=O)O (centres undefined)
T/C endpoint: median survival time, dose: 25.0 mg/kg/injection, schedule: Q04DX002 (ip), vehicle: saline
  survivor count: 1 of 3
T/C endpoint: median survival time, dose: 100.0 mg/kg/injection, schedule: Q04DX002 (ip), vehicle: saline
  survivor count: 0 of 3
T/C endpoint: median survival time, dose: 200.0 mg/kg/injection, schedule: Q04DX002 (ip), vehicle: saline
  survivor count: 0 of 3
T/C endpoint: median survival time, dose: 400.0 mg/kg/injection, schedule: Q04DX002 (ip), vehicle: saline
  survivor count: 0 of 3

## CCCCOC(=S)SCCSC(=S)OCCCC
[5]
  survivor count: 4 of 6

## Nc1ncnc2c1nc(-c1ccccc1)n2C1OC(CO)C(O)C1O (centres undefined)
T/C endpoint: median survival time, dose: 400.0 mg/kg/injection, schedule: Q01DX005 (ip), vehicle: distilled water + Tween-80
  survivor count: 3 of 6

## CC1(C2CCN(Cc3ccccc3)CC2)OCCO1
[10]
  survivor count: 1 of 6

## COc1ccc([Si](C)(C)CNCCSS(=O)(=O)O)cc1
[7]
  survivor count: 4 of 6

## CC(=O)OCc1ccc(/C=N/Nc2ccc([N+](=O)[O-])cc2[N+](=O)[O-])cc1Br
T/C endpoint: mean survival time, dose: 100.0 mg/kg/injection, schedule: Q04DX003 (ip), vehicle: saline
  survivor count: 5 of 6

## O=S(=O)(O)O.[NH-]CC(=O)O.[NH-]CC(=O)O.[NH-]CC(=O)O.[NH-]CC(=O)O.[Pt+2].[Pt+2]
T/C endpoint: mean survival time, dose: 100.0 mg/kg/injection, schedule: Q04DX003 (ip), vehicle: distilled water + Tween-80
  survivor count: 0 of 6
T/C endpoint: mean survival time, dose: 200.0 mg/kg/injection, schedule: Q04DX003 (ip), vehicle: distilled water + Tween-80
  survivor count: 0 of 6

## Cc1cccc[n+]1CC[n+]1ccccc1C
[11]
  survivor count: 2 of 6

## COc1cccc(CCNc2ccncc2N)c1
T/C endpoint: mean survival time, dose: 150.0 mg/kg/injection, schedule: Q01DX001 (ip), vehicle: saline
  survivor count: 0 of 6
[10]
  survivor count: 0 of 6

## COC(=O)N(C)c1nc(-c2ccccc2)nc2nonc12
T/C endpoint: mean survival time, dose: 200.0 mg/kg/injection, schedule: Q01DX005 (ip), vehicle: saline with Tween-80
  survivor count: 6 of 6

## CN(C)C(=O)Sc1ccc(N(C)C)cc1
[12]
  T/C: 125 % of control

## COc1ccc2c(c1)CCn1c(C)c(COC(=O)NC(C)C)c(COC(=O)NC(C)C)c1-2
T/C endpoint: median survival time, dose: 6.25 mg/kg/injection, schedule: Q01DX009 (ip), vehicle: distilled water + Tween-80
  T/C: 127 and 130 % of control
T/C endpoint: median survival time, dose: 12.5 mg/kg/injection, schedule: Q01DX009 (ip), vehicle: distilled water + Tween-80
  T/C: 126, 136, 138 % of control
T/C endpoint: median survival time, dose: 25.0 mg/kg/injection, schedule: Q01DX009 (ip), vehicle: distilled water + Tween-80
  T/C: 125 % of control
T/C endpoint: median survival time, dose: 50.0 mg/kg/injection, schedule: Q01DX009 (ip), vehicle: distilled water + Tween-80
  survivor count: 1 of 6 and 3 of 6

## O=C(O)C1CC(c2ccccc2)=NN1c1ccccc1 (centres undefined)
T/C endpoint: mean survival time, dose: 400.0 mg/kg/injection, schedule: Q01DX009 (ip), vehicle: water
  survivor count: 0 of 6, 1 of 6, 2 of 6

## COC(=Nc1ccccc1)SSC(C)C
[13]
  survivor count: 5 of 10
[4]
  survivor count: 0 of 10

## COc1ccc(NC(C)=O)c(O)c1C
T/C endpoint: mean survival time, dose: 200.0 mg/kg/injection, schedule: Q01DX001 (ip), vehicle: saline with Tween-80
  survivor count: 6 of 6

## Nn1c2ccccc2c2ccccc21
[10]
  survivor count: 0 of 6

## Cc1c(F)c(F)c(C(=O)O)c(F)c1F
[5]
  survivor count: 6 of 6

## O=C1C=CC(=O)c2c(O)cccc21
T/C endpoint: mean survival time, dose: 12.5 mg/kg/injection, schedule: Q01DX009 (ip), vehicle: saline with Tween-80
  survivor count: 0 of 6
T/C endpoint: mean survival time, dose: 25.0 mg/kg/injection, schedule: Q04DX003 (ip), vehicle: saline with Tween-80
  survivor count: 5 of 6
T/C endpoint: mean survival time, dose: 50.0 mg/kg/injection, schedule: Q04DX003 (ip), vehicle: saline with Tween-80
  survivor count: 4 of 6
T/C endpoint: mean survival time, dose: 100.0 mg/kg/injection, schedule: Q04DX003 (ip), vehicle: saline with Tween-80
  survivor count: 4 of 6
[6]
  survivor count: 4 of 6
[7]
  survivor count: 0 of 6

## Nc1nc(N)n2nnnc2c1[N+](=O)[O-]
T/C endpoint: mean survival time, dose: 200.0 mg/kg/injection, schedule: Q01DX001 (ip), vehicle: carboxymethylcellulose (CMC)
  survivor count: 1 of 6
T/C endpoint: mean survival time, dose: 400.0 mg/kg/injection, schedule: Q01DX001 (ip), vehicle: carboxymethylcellulose (CMC)
  survivor count: 0 of 6

## CCC(=O)NCCc1ccccc1
T/C endpoint: mean survival time, dose: 100.0 mg/kg/injection, schedule: Q01DX001 (ip), vehicle: saline with Tween-80
  survivor count: 6 of 6
[5]
  survivor count: 2 of 6

## CN(C)P1(=O)NCC(C(C)(C)C)CO1 (centres undefined)
T/C endpoint: mean survival time, dose: 500.0 mg/kg/injection, schedule: Q01DX001 (ip), vehicle: water
  survivor count: 0 of 6

## COc1cc(OC)c(CNC2CCCCCCC2)c(OC)c1
[8]
  survivor count: 1 of 3
[9]
  survivor count: 0 of 3
T/C endpoint: mean survival time, dose: 400.0 mg/kg/injection, schedule: Q04DX002 (ip), vehicle: saline
  survivor count: 0 of 3

## O=C1C=C(c2ccccc2)CC1
[4]
  survivor count: 3 of 6
[7]
  survivor count: 0 of 6

## [Cl][Pt+2][Cl].[NH-]C1CCCCC1C1CCCCC1[NH-] (centres undefined)
T/C endpoint: mean survival time, dose: 12.5 mg/kg/injection, schedule: Q04DX003 (ip), vehicle: distilled water + Tween-80
  T/C: 141 % of control
T/C endpoint: mean survival time, dose: 50.0 mg/kg/injection, schedule: Q04DX003 (ip), vehicle: distilled water + Tween-80
  T/C: 133 % of control

## c1ccc(CNc2nnnn2C2CCCCC2)cc1
[12]
  survivor count: 0 of 3
T/C endpoint: mean survival time, dose: 200.0 mg/kg/injection, schedule: Q04DX002 (ip), vehicle: saline with Tween-80
  survivor count: 0 of 3
[3]
  survivor count: 0 of 3

## ClC1=C(Cl)C(Cl)=C(Cl)C1=Cc1ccccc1
[13]
  survivor count: 5 of 10

## CN1CCN(CCCN2C(=O)C3CC=CCC3C2=O)CC1 (centres undefined)
[11]
  survivor count: 3 of 6
